The assay in a line: qHTS Assay for Lipid Storage Modulators in Drosophila S3 Cells.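 For cell number change: cells counted by Cell Tracker Red CMTPX staining in the red channel.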 Particulars: BODIPY lipid droplet fluorescence, 18-24 h; for cell number change: measured here: cell count max response, cells fed with added oleic acid. A digest of the protocol: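 Laser-scanning cytometry quantifies lipid droplet accumulation (500–530 nm total intensity; droplet/cell object ratio) in oleic acid-fed (400 uM added) Drosophila S3 cells treated with a concentration series. 20 uM Triacsin C defined 100% inhibition.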
For orientation: Quantitative high-throughput screening tests each substance at several concentrations.

Setting [1] is: measured here: cell number channel AC50, cells fed with added oleic acid.
Setting [2] is: measured here: lipid fluorescence (Fed channel) AC50, cells fed with added oleic acid.

The structures appear in SMILES notation. The list shows a part of the results. These are further read-outs of the screen, such as a control signal, another cell line or another target. No call is given for them. Compounds called inactive in the main read-out are mostly missing here. Potencies come from curve fits of mixed quality, noted in brackets.

With `CC1CN(C(=O)C(C)Sc2nnnn2C)CC(C)O1` (stereo not given), the cell number change stood at 12.7%. The AC50 (usually the midpoint of the concentration-response curve, whichever way the signal moves) under setting [1] was 2.06 µM [falling, partial curve].
Consider `CCOC(=O)c1c(NC(=O)CSc2nnc(-c3ccccc3C)n2C)sc(C(C)=O)c1C`, for which the cell number change was -7.37%. Further, under setting [1], the AC50 is 0.231 µM [rising, full curve, poor fit]. Moreover, the AC50 under setting [2] was 0.651 µM [rising, full curve].
As to `Cc1ccc(S(=O)(=O)Nc2ccccc2C(=O)OC(C)C(=O)Nc2ccc3ccccc3c2)cc1[N+](=O)[O-]` (stereo not given), the cell number change is -1.06%. Further, the AC50 under setting [2] is 25.9 µM [rising, partial curve].
As for `O=C(CSc1nc2ccccc2nc1N1CCCC1)Nc1ccc(Cl)cc1`, the cell number change turned out to be 6.92%. In addition, under setting [2], the AC50 is 29.1 µM [falling, single point].
With `CCOn1c(=O)c(-c2ccc(F)cc2)[n+]([O-])c2ccccc21`, the cell number change was 44.4%. Also, the AC50 under setting [1] was 0.651 µM [rising, full curve, poor fit].
As to `O=C(O)c1ccc(-n2nncc2-c2ccco2)cc1`, the cell number change was 4.05%.
Regarding `CCCOc1ccc(C2NC(=S)NC(C)=C2C(=O)c2ccccc2)cc1OC` (stereo not given), the cell number change was -13%. Also, the AC50 under setting [2] was 9.2 µM [falling, partial curve, poor fit].
For the compound `Cc1cccc(/C=C2/S/C(=N/N=C3\CC4CCC3(C)C4(C)C)NC2=O)c1` (stereo not given), the cell number change is -70%. For the same compound, under setting [1], the AC50 is 29.1 µM [falling, single point]. Also, the concentration at half-maximal activity (AC50) under setting [2] is 29.1 µM [falling, partial curve].
With `COc1cccc(Cn2c(NCc3ccco3)nc3c2c(=O)n(C)c(=O)n3C)c1`, the cell number change is -117%. In addition, the AC50 under setting [1] is 20.6 µM [falling, partial curve]. Under setting [2], the AC50 was 8.2 µM [falling, partial curve].
As for `O=C(OCc1cc2ccccc2[nH]c1=O)C1CCCO1` (stereo not given), the cell number change was determined as 1.1%. In addition, the AC50 under setting [2] is 0.259 µM [falling, full curve, poor fit].
In the case of `Cc1ccccc1-n1c(=O)/c(=C\c2ccco2)s/c1=C(/C#N)C(=O)Nc1ccccc1`, the cell number change was -13.1%. For the same compound, the AC50 under setting [2] was 7.31 µM [rising, full curve, poor fit].
As for `Cc1ccc(N2C(=O)c3ccc(C(=O)O)cc3C2=O)cc1C`, the cell number change was -42.3%. The AC50 under setting [1] was 29.1 µM [falling, single point].
With `COc1cc(C(=O)Nc2ccc(OCC(=O)O)cc2)cc(OC)c1OC`, the cell number change is 6.11%. Further, the AC50 under setting [2] was 1.16 µM [rising, full curve, poor fit].
Regarding `CCOC(=O)c1cn(Cc2ccccc2)nn1`, the cell number change is 34.2%. The AC50 under setting [2] was 32.6 µM [rising, single point].
As for `NC(=O)CC(NC(=O)Cc1cccc2ccccc12)c1ccc(N2CCN(c3ccc(F)cc3)CC2)c([N+](=O)[O-])c1` (stereo not given), the cell number change was -21.8%. The AC50 under setting [1] is 0.651 µM [falling, full curve, poor fit].
For `Cc1cc(C)c2c(c1)cc(C)c1nnc(SCC(=O)Nc3ccc(S(=O)(=O)N4CCCCC4)cc3)n12`, the cell number change was -9.44%. Under setting [2], the AC50 is 20.6 µM [falling, single point].
Take `COc1ccccc1N1CCN(C2CCCN(C(=O)CN3CCCC3=O)C2)CC1` (stereo not given): the cell number change is 1.16%. Under setting [2], the AC50 was 29.1 µM [rising, single point].
For `COc1ccc([C@H]2CC(=O)C=C(c3ccc4c(c3)sc3ccccc34)C2)cc1`, the cell number change was -23.1%. The concentration at half-maximal activity (AC50) under setting [2] was 0.92 µM [falling, full curve].
As for `CC(=O)Oc1c(Cl)cc(Cl)cc1/C=C/c1ccc2ccccc2n1`, the cell number change was -65%. Also, the half-maximal activity concentration (AC50) under setting [1] is 18.4 µM [falling, partial curve]. Also, the AC50 under setting [2] is 11.6 µM [falling, partial curve, poor fit].
Consider `COc1ccc(NC(=O)c2onc(C)c2Cl)cc1`, for which the cell number change was -15.5%. Besides, under setting [2], the AC50 was 29.1 µM [falling, single point].
For the compound `CCOC(=O)c1c(N)n[nH]c1-c1ccc(OC)cc1`, the AC50 reads like this: under setting [1], 0.82 µM [rising, partial curve]; under setting [2], 0.58 µM [rising, full curve].
For `CC(C)(C)NC(=O)NC(=O)COC(=O)CCCc1c[nH]c2ccccc12`, the cell number change is 32.6%. Moreover, the AC50 under setting [1] was 0.82 µM [rising, full curve, poor fit].
Take `CCc1[nH]nc(C(=O)N2CCCC(C(=O)c3cccc(OC(C)C)c3)C2)c1C` (stereo not given): the cell number change was -30%. Further, the AC50 under setting [2] is 0.651 µM [falling, single point].
`COc1ccc(C2SCC(=O)N2c2nc3ccccc3s2)cc1` (stereo not given): the cell number change is -0.594%. Also, under setting [2], the AC50 was 20.6 µM [rising, partial curve, poor fit].
In the case of `CCc1ccccc1NS(=O)(=O)c1cc2c3c(c1)CCN3C(=O)CC2`, the cell number change is -88.9%. Under setting [1], the AC50 was 16.4 µM [falling, single point]. Also, the AC50 under setting [2] was 18.4 µM [falling, single point].
As to `CC1CCN(CCOc2ccc(OCc3ccccc3)cc2)CC1`, the cell number change was 2.77%. Also, under setting [2], the half-maximal activity concentration (AC50) is 0.116 µM [rising, full curve, poor fit].
Take `O=S(=O)(NNc1nccc(C(F)(F)F)n1)c1cccc(Cl)c1Cl`: the cell number change is -18.6%. For the same compound, the AC50 under setting [2] is 9.2 µM [falling, partial curve, poor fit].
Take `CCN(CC)S(=O)(=O)c1ccc(N/N=C/c2ccc(OC)c(OC)c2OC)nc1`: the cell number change was determined as 57%. Besides, under setting [1], the AC50 is 29.1 µM [rising, single point]. Besides, the AC50 under setting [2] was 1.64 µM [rising, partial curve].
Regarding `CCCCNC(=S)N/N=C1\CCCCc2ccccc21`, the cell number change was -1.15%. Also, under setting [1], the AC50 is 0.731 µM [rising, single point].
Regarding `CCc1noc(C)c1C(=O)NNC(=O)c1cc(OC)c(OC)c(OC)c1`, the cell number change is -6.89%. Further, under setting [1], the AC50 is 1.3 µM [falling, partial curve]. In addition, the AC50 under setting [2] was 6.51 µM [falling, single point].
Regarding `C/C(=N\NC(=O)c1cccc(C)c1)c1ccc(N2CCOCC2)cc1`, the cell number change was determined as 51.1%. The AC50 under setting [1] was 9.2 µM [rising, partial curve]. The AC50 under setting [2] was 6.51 µM [rising, single point].
For the compound `COc1ccccc1/C=C/C(=O)Nc1cccc(C(C)=O)c1`, the cell number change came to 15.6%. In addition, the AC50 under setting [2] was 4.11 µM [rising, single point].
Take `CSc1ncccc1C(=O)OCC(=O)Nc1ccc(S(=O)(=O)N2CCCC2)cc1`: the cell number change was found to be 5.31%. Moreover, the half-maximal activity concentration (AC50) under setting [2] was 2.59 µM [rising, single point].
As to `CC(C)C[C@H](NC(=O)N1CCn2c1nc1ccccc12)C(=O)N[C@@H](Cc1ccccc1)C(=O)O`, the cell number change amounted to 14.2%.
Still for that read-out and setting: the value for `O=C(CN1C(=O)COc2ccccc21)NCC1CCCO1` (stereo not given) was 6.41%.

The values are drawn from PubChem BioAssay AID2685 (National Center for Advancing Translational Sciences (NCATS), 2010).
